Where a name gives a salt, the structure may show the parent alone. The list shows a part of the results. This data set is noisy: repeats of one test often differ as much as different tests do.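 Wild-type human LRH-1, a heavily sumoylated nuclear receptor, is tetracycline-inducible in stable JEG3 cells. RT-qPCR measured SUMO-sensitive APOC3 and MUC1 transcripts, which rise with SUMO-less LRH-1 or UBC9 knockdown, versus TBP and DMSO controls. Robust Z-scores beyond ±2 flagged primary hits, followed by toxicity and TBP filtering.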
test system: JEG3 expressing hLRH-1; assay: APOC3 transcript change (ddCt vs TBP and DMSO), Z-score over library; higher = higher APOC3 expression; details: 10 µM; time (hr): 24

Row | Structure (SMILES) | APOC3 transcript change (Z-score)
1 | O=C(Nc1ccc([N+](=O)[O-])cc1Cl)c1cc(Cl)ccc1O [nicolsamide] | -1.37
2 | CCCc1cc(O)nc(S)n1 [propylthiouracil] | 0.828
3 | CC1(C)O[C@@H]2C[C@H]3[C@@H]4CCC5=CC(=O)C=C[C@]5(C)[C@@]4(F)[C@@H](O)C[C@]3(C)[C@]2(C(=O)CO)O1 [triamcinolone acetonide] | 0.766
4 | Cc1cc2nc3ccc(N(C)C)cc3[s+]c2cc1N [tolonium chloride] | -0.992
5 | Cc1oncc1C(=O)Nc1ccc(C(F)(F)F)cc1 [lefunamide] | 0.896
6 | Clc1ccc(CO/N=C(\Cn2ccnc2)c2ccc(Cl)cc2Cl)c(Cl)c1 [oxiconazole nitrate] | 0.429
7 | NC(=O)c1cc[n+](CC2=C(C(=O)O)N3C(=O)[C@@H](NC(=O)Cc4cccs4)[C@H]3SC2)cc1 [cefalonium] | -0.483
8 | CC(=O)OCC(=O)[C@@]1(O)CCC2C3CCC4=CC(=O)CC[C@]4(C)C3C(=O)C[C@@]21C (stereo not given in full) [cortisone acetate] | 0.26
9 | Cc1nnc(NS(=O)(=O)c2ccc(N)cc2)s1 [sulfamethizole] | -0.1
10 | CO[C@@]12[C@H](COC(N)=O)C3=C(C(=O)C(C)=C(N)C3=O)N1C[C@@H]1N[C@@H]12 [mitomycin c] | -3.72
11 | Nc1ccc(S(=O)(=O)NC(=O)c2ccccc2)cc1 [sulfabenzamide] | -0.00313
12 | Cc1ccc(Cl)c(Nc2ccccc2C(=O)O)c1Cl [sodium meclofenamate] | 0.252
13 | Oc1ccc(OCc2ccccc2)cc1 [monobenzone] | 0.463
14 | C[C@H]1CC2C3CCC4=CC(=O)C=C[C@]4(C)[C@@]3(F)[C@@H](O)C[C@]2(C)[C@@]1(O)C(=O)COP(=O)(O)O (stereo not given in full) [betamethasone sodium phosphate] | 1.07
15 | CNCCCC1c2ccccc2C=Cc2ccccc21 [Protriptyline hydrochloride] | 1.12
16 | CCCCCCNC(=O)n1cc(F)c(=O)[nH]c1=O [carmofur] | 0.228
17 | Nc1nc(N)c2nc(-c3ccccc3)c(N)nc2n1 [Triamterene] | -0.451
18 | O=C1C2CC3CC1CC(O)(C3)C2 [idramantone] | -0.111
19 | Cc1cccc(N(C)C(=S)Oc2ccc3ccccc3c2)c1 [tolnaftate] | 0.6
20 | CC(C)Cn1cnc2c(N)nc3ccccc3c21 [imiquimod] | -0.0883
21 | O=C(CNC(=O)c1ccc(Cl)cc1)NO [benurestat] | 0.476
22 | Nc1nc(O)ncc1F [flucytosine] | -0.0639
23 | COc1ccccc1N1CCN(CC(O)COc2cccc3ccccc23)CC1 (stereo not given) [Naftopidil dihydrochloride] | 1.47
24 | CC(=O)OC1CC2CCC1(C)C2(C)C (stereo not given) [bornyl acetate] | 0.212
25 | N=C(N)c1ccc(OCCCCCOc2ccc(C(=N)N)cc2)cc1 [Pentamidine isethionate] | -1.35
26 | CCC(=O)c1c(O)cc(O)cc1O [flopropione] | -1.05
27 | FC(F)(Cl)C(F)(F)Cl [cryoflurane] | -0.624

Row | Structure (SMILES) | APOC3 transcript change (Z-score)
28 | CO/N=C(\C(=O)N[C@@H]1C(=O)N2C(C(=O)O)=C(COC(N)=O)CS[C@H]12)c1ccco1 [cefuroxime sodium] | 0.334
29 | NC1CCN(c2c(F)cc3c(=O)c(C(=O)O)cn(C4CC4)c3c2Cl)C1 (stereo not given) [clinafoxacin hydrochloride] | 0.671
30 | CCOC(=O)n1ccn(C)c1=S [carbimazole] | 0.301
31 | CCCCCCCCCCCCCCCC(=O)O[C@@H]1[C@@H](O)[C@@H](O)[C@@H]([C@H](NC(=O)[C@@H]2C[C@@H](CCC)CN2C)[C@H](C)Cl)O[C@@H]1SC [clindamycin palmitate hydrochloride] | -0.214
32 | CN(C)CC/C=C1/c2ccccc2COc2ccccc21 [doxepin hydrochloride] | -0.284
33 | N[C@@H](C(=O)N[C@@H]1C(=O)N2C(C(=O)O)=C(Cl)CS[C@H]12)c1ccccc1 [cefaclor] | -0.721
34 | Clc1ccc(COC(Cn2ccnc2)c2ccc(Cl)cc2Cl)c(Cl)c1 (stereo not given) [miconazole nitrate] | 1.9
35 | CC(=O)OCC(=O)[C@@]1(O)[C@H](C)CC2C3CCC4=CC(=O)C=C[C@]4(C)[C@@]3(F)[C@@H](O)C[C@@]21C (stereo not given in full) [dexamethasone acetate] | 0.124
36 | Cc1c(-c2cnccn2)ssc1=S [oltipraz] | -0.278
37 | O=C1CN(/N=C/c2ccc([N+](=O)[O-])o2)C(=O)N1 [nitrofurantoin] | -0.147
38 | O=C(O)COCCN1CCN(C(c2ccccc2)c2ccc(Cl)cc2)CC1 (stereo not given) [cetirizine hydrochloride] | -1.33
39 | CCC(=O)O[C@]1(C(=O)CCl)[C@@H](C)C[C@H]2[C@@H]3CCC4=CC(=O)C=C[C@]4(C)[C@@]3(F)[C@@H](O)C[C@@]21C [clobetasol propionate] | 0.0504
40 | CC(C)NCC(O)c1ccc2ccccc2c1 (stereo not given) [pronetalol hydrochloride] | -1.67
41 | Cc1nc2n(c(=O)c1CCN1CCC(c3noc4cc(F)ccc34)CC1)CCC[C@H]2O [paliperidone] | -0.208
42 | CC(NCCc1ccc(O)cc1)C(O)c1ccc(O)cc1 (stereo not given) [ritodrine hydrochloride] | -0.223
43 | CN1CCC(=C2c3ccccc3CC(=O)c3sccc32)CC1 [ketotifen fumarate] | 1.32
44 | CCOC(=O)C1=C[C@]2(CC)CCCN3CCc4c(n1c1ccccc41)[C@@H]32 [vinpocetine] | 0.522
45 | Cc1ccc(O)cc1 [cresol] | 1.02
46 | C/C(=C\C(=O)OCCCCCCCCC(=O)O)C[C@@H]1OC[C@H](C[C@@H]2O[C@H]2[C@@H](C)[C@H](C)O)[C@@H](O)[C@H]1O [mupirocin] | -0.123
47 | NS(=O)(=O)c1ccc(C(=O)O)cc1 [carzenide] | 0.141
48 | CCCN(CCC)S(=O)(=O)c1ccc(C(=O)O)cc1 [probenecid] | -0.685
49 | CN(C(=O)C(Cl)Cl)c1ccc(OC(=O)c2ccco2)cc1 [diloxanide furoate] | -0.373
50 | C[C@H]1C[C@@H]2[C@H]([C@@H](O)C[C@@]3(C)[C@H]2CC[C@]3(O)C(=O)CO)[C@@]2(C)C=CC(=O)C=C12 [methylprednisolone] | 0.441
51 | CCC(=O)NCC[C@@H]1CCc2ccc3c(c21)CCO3 [ramelteon] | 0.151
52 | Cc1nc2n(c(=O)c1CCN1CCC(c3noc4cc(F)ccc34)CC1)CCCC2 [Risperidone] | -1.24
53 | CCc1oc2ccccc2c1C(=O)c1cc(Br)c(O)c(Br)c1 [benzbromarone] | 0.193
54 | Clc1cccc(Cl)c1NC1=NCCN1 [Clonidine hydrochloride] | 1.24

Excerpt: compounds 51 to 53
Row | Structure (SMILES) | APOC3 transcript change (Z-score)
51 | CCC(=O)NCC[C@@H]1CCc2ccc3c(c21)CCO3 [ramelteon] | 0.151
52 | Cc1nc2n(c(=O)c1CCN1CCC(c3noc4cc(F)ccc34)CC1)CCCC2 [Risperidone] | -1.24
53 | CCc1oc2ccccc2c1C(=O)c1cc(Br)c(O)c(Br)c1 [benzbromarone] | 0.193

(cont.)

Row | Structure (SMILES) | APOC3 transcript change (Z-score)
55 | CC(=O)Oc1cccc2c1C(=O)c1c(OC(C)=O)cc(C(=O)O)cc1C2=O [diacerin] | -1.23
56 | CC(C)COCC(CN(Cc1ccccc1)c1ccccc1)N1CCCC1 (stereo not given) [Bepridil hydrochloride] | 0.975
57 | CN(C)CCOC(C)(c1ccccc1)c1ccccn1 (stereo not given) [doxylamine succinate] | -0.34
58 | CC1=C(C)C(=O)C(C(CCCCCC(=O)O)c2ccccc2)=C(C)C1=O (stereo not given) [seratrodast] | -0.678
59 | C[n+]1cc2c3c(ccc2c2ccc4cc5c(cc4c21)OCO5)OCO3 [Sanguinarine chloride] | 2.54
60 | CN(C)CCCOc1nn(Cc2ccccc2)c2ccccc12 [benzydamine hydrochloride] | 0.231
61 | CC(=O)Nc1ncc([N+](=O)[O-])s1 [nithiamide] | 0.487
62 | NCC(O)CC(=O)O (stereo not given) [aminohydroxybutyric acid] | -0.648
63 | NNc1nncc2ccccc12 [hydralazine hydrochloride] | -0.728
64 | Cc1cc(=O)n(-c2ccccc2)n1C [antipyrine] | -0.513
65 | CCN(CC)CC#CCOC(=O)C(O)(c1ccccc1)C1CCCCC1 (stereo not given) [oxybutynin chloride] | 0.902
66 | C[C@@H]1O[C@@H](OC[C@H]2OC(Oc3c(-c4ccc(O)c(O)c4)oc4cc(O)cc(O)c4c3=O)[C@H](O)[C@@H](O)[C@@H]2O)[C@H](O)[C@H](O)[C@H]1O (stereo not given in full) [rutin] | -0.0889
67 | C1CNCCN1 [piperazine] | -3.1
68 | O=C(O)CSCC(=O)NC1CCSC1=O (stereo not given) [erdosteine] | -0.433
69 | CC(C)c1ccc2oc3nc(N)c(C(=O)O)cc3c(=O)c2c1 [amlexanox] | 0.125
70 | CCOC(N)=O [urethane] | 0.743
71 | CC(C)C(=O)Nc1ccc([N+](=O)[O-])c(C(F)(F)F)c1 [flutamide] | -0.0923
72 | CC(CCc1ccc(O)cc1)NCC(O)c1ccc(O)cc1 (stereo not given) [ractopamine hydrochloride] | 0.269
73 | Cc1ccc(/C(=C\CN2CCCC2)c2ccccn2)cc1 [Triprolidine hydrochloride] | 0.256
74 | COc1cc2nc(N3CCN(C(=O)c4ccco4)CC3)nc(N)c2cc1OC [prazosin hydrochloride] | -0.365
75 | Oc1ccc2ccccc2c1 [beta-naphthol] | 0.356
76 | N[C@@H](CC(=O)N1CCn2c(nnc2C(F)(F)F)C1)Cc1cc(F)c(F)cc1F [sitagliptin monophosphate monohydrate] | -0.702
77 | CC(=O)SCC(Cc1ccccc1)C(=O)NCC(=O)OCc1ccccc1 (stereo not given) [racecadotril] | 0.285
78 | OCCN(CCO)c1nc(N2CCCCC2)c2nc(N(CCO)CCO)nc(N3CCCCC3)c2n1 [Dipyridamole] | 0.472
79 | C=C1c2c(Cl)ccc(O)c2C(O)=C2C(=O)[C@]3(O)C(O)=C(C(N)=O)C(=O)[C@@H](N(C)C)[C@@H]3[C@@H](O)[C@H]12 [meclocycline sulfosalicylate] | -0.114
80 | CC(=O)Nc1ccc(S(=O)(=O)Nc2onc(C)c2C)cc1 [sulfisoxazole acetyl] | 0.149

Quoted at random: 2 compounds from above
Row | Structure (SMILES) | APOC3 transcript change (Z-score)
6 | Clc1ccc(CO/N=C(\Cn2ccnc2)c2ccc(Cl)cc2Cl)c(Cl)c1 [oxiconazole nitrate] | 0.429
25 | N=C(N)c1ccc(OCCCCCOc2ccc(C(=N)N)cc2)cc1 [Pentamidine isethionate] | -1.35
